Patent publication US9750733B2, “Compounds for preventing and/or treating lysosomal storage disorders and/or degenerative disorders of the central nervous system” (Amicus Therapeutics, Inc., priority 2012, dated 2017)
Where a name gives a salt, the structure may show the parent alone. Some entries share one result that the patent states for a list of compounds.

Experiment: Dynamic vapor sorption (DVS) hygroscopicity analysis
Format: physicochemical
Conditions: comparison of the Table 6 DVS values
Protocol: Differences in hygroscopicity (moisture uptake) of the various forms of a solid material provide a measure of their relative stability at increasing relative humidity. Dynamic vapor sorption (DVS) analysis was performed for (3R,4R,5S)-5-(difluoromethyl)piperidine-3,4-diol, (3R,4R,5S)-5-(difluoromethyl)piperidine-3,4-diol fumarate Form A, (3R,4R,5S)-5-(difluoromethyl)piperidine-3,4-diol fumarate Form 1B and (3R,4R,5S)-5-(difluoromethyl)piperidine-3,4-diol tosylate. Moisture sorption isotherms for samples of each salt and the free base were obtained using a DVS-1 system from Surface Measurement Systems (London, UK). The relative humidity was cycled from 45% to 95% (sorption), back to 0% (desorption) and back to 45% (sorption) at a constant temperature of 25° C. with a hold time of 60 minutes per each 10% step in relative humidity. The increase in weight due to moisture uptake was measured as a percentage of the weight of the material.

| Compound | Hygroscopicity of the salt relative to the free base (fold lower than free base) |
| --- | --- |
| O[C@H]1[C@H](O)CNC[C@@H]1C(F)F [Fumarate Form A, (3R,4R,5S)-5-(difluoromethyl)piperidine-3,4-diol fumarate Form A] | over 100 fold |
| Cc1ccc(S(=O)(=O)O)cc1.O[C@H]1[C@H](O)CNC[C@@H]1C(F)F [Tosylate, (3R,4R,5S)-5-(difluoromethyl)piperidine-3,4-diol tosylate] | over 100 fold |
